{
  "source": "PubChem BioAssay AID1347076",
  "about": "(National Center for Advancing Translational Sciences (NCATS), 2019)",
  "note": "Screen size: about 400,000 compounds; about 13,000 (3.2%) were called active. This list was built around the results that the source calls inconclusive (neither active nor inactive); the mix of calls is not that of the screen. The call rests on the fitted dose curve; in most records, active means well fitted cell-killing curve with a large enough effect; inconclusive means small, poorly fitted or top-dose-only effect, or effect the other way; inactive means flat fitted curve, though single readings scatter. Potencies beside an inconclusive call are fits to weak or partial responses and may not hold up. On the % scale 0 is the no-effect control and ±100 the full control effect; potency means the concentration at half of the fitted maximal effect.",
  "data": [
    {"experiment": "qHTS assay for MDR1-selective chemotherapeutics: Primary screen using the drug-selected MDR subline cells KB-V1; further: nearly all actives have a fitted effect of over 60% in size", "details": "KB-V1 MDR cells viability, CellTiter-Glo, 72 h; activity change, negative = cytotoxicity: at 46.1 µM (top of the series)", "how_it_was_run": "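Readout: CellTiter-Glo luminescence, 10 min after addition. Cells: KB-V1 MDR subline, 72 h at 37 degrees C with compound. Analysis: corrected, normalized data fitted to concentration-effect curves.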", "values": [
      {"smiles": "Nc1nc(SCc2ccccc2)sc1C(=O)N1CCCCC1", "Potency": "inconclusive: 20.6 µM [cytotoxic, single point]"},
      {"smiles": "CCOc1c(OC(C)=O)ccc(/C=C2\\N=C(SCC)SC2=O)c1[N+](=O)[O-]", "activity change, negative = cytotoxicity": "inactive: 10.7%"},
      {"smiles": "Cc1ccc(Cl)cc1NC(=S)N(CCN(C)C)Cc1cccs1", "Potency": "inconclusive: 0.0065 µM [cytotoxic, partial curve, poor fit]"},
      {"smiles": "Cc1csc(=O)n1CCC(=O)OCC(=O)Nc1ccc(F)c(F)c1F", "activity change, negative = cytotoxicity": "inactive: 8.2%"},
      {"smiles": "CCC(=O)Nc1ccc(F)c(Cl)c1", "activity change, negative = cytotoxicity": "inactive: 9.95%"},
      {"smiles": "Cc1ccc(-c2n[nH]c(=S)n2/N=C/c2c(C)[nH]n(-c3ccccc3)c2=O)cc1", "Potency": "inconclusive: 20.6 µM [cytotoxic, single point]"},
      {"smiles": "Cc1ccc(OCCN2CCC2(C)C(=O)Nc2ccc3c(c2)OCCO3)cc1", "note": "(centres undefined)", "activity change, negative = cytotoxicity": "inactive: -2.28%"},
      {"smiles": "CCn1ncc(Cl)c1C(=O)NC(=S)Nc1ccccc1Br", "Potency": "active: 16.4 µM"},
      {"smiles": "Cc1cccc(C(=O)NCC(=O)OCc2cc(=O)n3ccsc3n2)c1", "Potency": "inconclusive: 20.6 µM [rising, single point]"},
      {"smiles": "NS(=O)(=O)c1ccc(CCNC(=O)CN2C(=O)COc3ccc(S(=O)(=O)N4CCCC4)cc32)cc1", "Potency": "inconclusive: 6.51 µM [cytotoxic, full curve]"},
      {"smiles": "COc1ccc(NC(=O)C2(C)CCN2Cc2ccccc2Cl)cc1OC", "note": "(centres undefined)", "Potency": "inconclusive: 25.9 µM [cytotoxic, single point]"},
      {"smiles": "C(=N\\N1CCN(c2ccccn2)CC1)/c1cccc2ccccc12", "Potency": "inconclusive: 25.9 µM [cytotoxic, partial curve, poor fit]"},
      {"smiles": "CCCCc1nc(SCCN2CCOCC2)c2c(=O)n(C)c(=O)n(C)c2n1", "Potency": "inconclusive: 11.6 µM [cytotoxic, partial curve]"},
      {"smiles": "C=C(C)c1cccc(C(C)(C)NC(=O)NC2CCCC2)c1", "Potency": "inconclusive: 29.1 µM [cytotoxic, single point]"},
      {"smiles": "COc1cccc(/C(O)=C/c2nc3ccc(C(=O)NCCc4cccc(C)c4)cc3[nH]c2=O)c1", "Potency": "inconclusive: 32.6 µM [cytotoxic, partial curve, poor fit]"},
      {"smiles": "COc1ccc([N+](=O)[O-])cc1NC(=O)Nc1ccc(OC)c(OC)c1", "Potency": "inconclusive: 32.6 µM [cytotoxic, single point]"},
      {"smiles": "CC1CCN(S(=O)(=O)N2CCC(C(=O)NCc3ccc(F)cc3Cl)CC2)CC1", "Potency": "inconclusive: 11.6 µM [cytotoxic, partial curve]"},
      {"smiles": "O=C(CSc1ncccn1)NC(=O)NC1CCCC1", "Potency": "inconclusive: 20.6 µM [rising, partial curve, poor fit]"},
      {"smiles": "Cc1nc2ccc(NC(=O)c3cc(S(=O)(=O)N(C)c4ccccc4)ccc3Cl)cc2s1", "Potency": "inconclusive: 5.17 µM [cytotoxic, full curve]"},
      {"smiles": "COc1cccc(C(O)c2nc(-c3ccc(OC)nc3)cs2)c1", "note": "(centres undefined)", "activity change, negative = cytotoxicity": "inactive: -0.891%"},
      {"smiles": "Cc1cc(C)c(NC(=O)C(C)n2nc(C)c3sc4ccccc4c3c2=O)c(C)c1", "note": "(centres undefined)", "Potency": "inconclusive: 32.6 µM [rising, single point]"},
      {"smiles": "O=C(Nc1ccc(-c2nc3ccccc3[nH]2)cc1)c1ccc(Cl)c(Cl)c1", "Potency": "inconclusive: 29.1 µM [rising, single point]"},
      {"smiles": "Cc1ccc(NC(=O)CNCc2ccc(Cl)cc2Cl)cc1S(=O)(=O)N(C)C", "Potency": "active: 13 µM"},
      {"smiles": "CCCCCNC(=O)C(C)NS(=O)(=O)c1ccc(OC)cc1", "note": "(centres undefined)", "Potency": "inconclusive: 16.4 µM [cytotoxic, single point]"},
      {"smiles": "Cc1cc(F)ccc1NC(=O)C1CCCN(C(=O)c2cnn(-c3ccccc3)c2-n2cccc2)C1", "note": "(centres undefined)", "activity change, negative = cytotoxicity": "inactive: 5.77%"},
      {"smiles": "C=C(C)C(=O)Nc1cccc(C(C)=O)c1", "Potency": "inconclusive: 20.6 µM [rising, single point]"},
      {"smiles": "COc1cc(C(O)c2nc(-c3ccc4ccccc4c3)cs2)ccc1F", "note": "(centres undefined)", "Potency": "inconclusive: 32.6 µM [cytotoxic, partial curve, poor fit]"},
      {"smiles": "O=C(Cn1ncc(Cl)c(Cl)c1=O)NC(=O)NC1CCCCC1", "Potency": "inconclusive: 20.6 µM [cytotoxic, single point]"},
      {"smiles": "COc1ccc(OC(=O)c2cn(-c3cccc(OC)c3)c(=O)c3ccccc23)cc1", "activity change, negative = cytotoxicity": "inactive: -7.66%"},
      {"smiles": "CC(/C=N/n1c(-c2ccc(Cl)cc2)n[nH]c1=S)=C\\c1ccco1", "Potency": "inconclusive: 23.1 µM [cytotoxic, partial curve, poor fit]"},
      {"smiles": "N#CC1=C(N)OC2=C(C(=O)CCC2)C1c1cc2c(cc1Br)OCO2", "note": "(centres undefined)", "activity change, negative = cytotoxicity": "inactive: 10.5%"},
      {"smiles": "O=C(/C=C/c1ccco1)NC(=S)Nc1ccc(N2CCOCC2)c(Cl)c1", "Potency": "inconclusive: 6.51 µM [cytotoxic, partial curve]"},
      {"smiles": "CCOC(=O)c1[nH]c(C)c(C(=O)Nc2cc(Cl)ccc2C)c1C", "Potency": "active: 0.461 µM"},
      {"smiles": "CCSc1nnc2c3cc(CC)ccc3n(C)c2n1", "Potency": "inconclusive: 25.9 µM [cytotoxic, partial curve, poor fit]"},
      {"smiles": "COc1cccc(-c2cccc(NC(=O)C3CCN(Cc4ccon4)CC3)c2)c1", "activity change, negative = cytotoxicity": "inactive: 21.4%"},
      {"smiles": "NC(Cc1ccccc1)c1csc(Nc2cc(Oc3ccccc3)ncn2)n1", "note": "(centres undefined)", "Potency": "inconclusive: 29.1 µM [cytotoxic, single point]"},
      {"smiles": "Cc1ccc(S(=O)(=O)N2C[C@]3(O)C[C@@H]4C(=O)N(c5ccccc5)C(=O)[C@@H]4C[C@]3(OC(=O)NC3CCCC3)C2)cc1", "activity change, negative = cytotoxicity": "inactive: -14.6%"},
      {"smiles": "COc1ccc(NS(=O)(=O)c2cccc(Cl)c2)cc1S(=O)(=O)N1CCCCC1", "Potency": "inconclusive: 11.6 µM [cytotoxic, partial curve]"},
      {"smiles": "COc1cccc(OCCCN2CCN(S(=O)(=O)c3ccc(NC(C)=O)cc3)CC2)c1", "Potency": "inconclusive: 23.1 µM [cytotoxic, single point]"},
      {"smiles": "Brc1ccc(-c2nn3c(-c4ccco4)nnc3s2)o1", "Potency": "active: 16.4 µM"},
      {"smiles": "O=C1CC(c2ccc3ccccc3c2)NN1", "note": "(centres undefined)", "Potency": "inconclusive: 29.1 µM [rising, single point]"},
      {"smiles": "COc1ccc(NC(=O)CC2C(=O)N(CCc3ccccc3)C(=S)N2Cc2cccnc2)cc1", "note": "(centres undefined)", "Potency": "active: 14.6 µM"},
      {"smiles": "Cc1ccc(-c2noc(-c3ccccc3OCC(=O)Nc3ccccc3[N+](=O)[O-])n2)cc1", "activity change, negative = cytotoxicity": "inactive: 2.52%"},
      {"smiles": "Cc1ccc(NC(=O)C(C)OC(=O)C2CC3CCCC(C2)C3=O)cc1S(=O)(=O)N1CCOCC1", "note": "(centres undefined)", "Potency": "inconclusive: 29.1 µM [cytotoxic, single point]"},
      {"smiles": "Cc1ccc(S(=O)(=O)Nc2c(C)n(C)n(-c3ccccc3)c2=O)cc1C(=O)NCc1ccccc1", "Potency": "inconclusive: 9.2 µM [rising, partial curve, poor fit]"},
      {"smiles": "O=C(NNc1c(Cl)cccc1Cl)c1cccs1", "activity change, negative = cytotoxicity": "inactive: 17.9%"},
      {"smiles": "COc1ccc(F)cc1CN1CCN(CC(=O)N2CCc3ccccc32)CC1", "Potency": "inconclusive: 7.31 µM [cytotoxic, partial curve]"},
      {"smiles": "CCOC(=O)C(NCCCO)c1ccccc1", "note": "(centres undefined)", "Potency": "inconclusive: 29.1 µM [rising, partial curve, poor fit]"},
      {"smiles": "COCCNc1nnc(SCC(=O)Nc2cc(C)on2)s1", "Potency": "inconclusive: 5.17 µM [rising, full curve]"},
      {"smiles": "CCCCCOc1ccc(C(=O)OC(C)C(=O)NCc2ccco2)cc1", "note": "(centres undefined)", "Potency": "inconclusive: 29.1 µM [cytotoxic, single point]"},
      {"smiles": "O=C(c1c(F)c(F)c(F)c(F)c1F)N(Cc1ccccc1)Cc1ccccc1", "Potency": "inconclusive: 3.26 µM [cytotoxic, full curve, poor fit]"},
      {"smiles": "Cn1c(CN2CCCCC2)c(C#N)c2ccccc21", "activity change, negative = cytotoxicity": "inactive: -2.94%"},
      {"smiles": "CCCCCn1c(CCCNC(=O)c2ccccc2)nc2ccccc21", "Potency": "inconclusive: 14.6 µM [cytotoxic, partial curve, poor fit]"},
      {"smiles": "O=C(Nc1ncc(Cc2ccc(F)cc2)s1)c1ccc2c(c1)CC(c1ccccc1)OC2=O", "note": "(centres undefined)", "activity change, negative = cytotoxicity": "inactive: 16.5%"},
      {"smiles": "Cc1ccc(C(=O)N/N=C\\c2ccc([N+](=O)[O-])s2)cn1", "Potency": "inconclusive: 16.4 µM [cytotoxic, single point]"},
      {"smiles": "O=C(O)c1ccc(NCc2cccs2)cc1", "activity change, negative = cytotoxicity": "inactive: 4.02%"},
      {"smiles": "Cc1nnc(N2CCC(C(=O)NC3CCC(C)CC3)CC2)c2nn(-c3ccc(Cl)cc3)c(C)c12", "note": "(centres undefined)", "Potency": "inconclusive: 29.1 µM [rising, single point]"},
      {"smiles": "CCC(=O)N1CCc2cc(Br)cc(S(=O)(=O)CCC(=O)NCC3CCCO3)c21", "note": "(centres undefined)", "Potency": "inconclusive: 29.1 µM [rising, single point]"},
      {"smiles": "COc1ccc(/C=N/N=C(\\N)c2nonc2N)cc1OC", "Potency": "inconclusive: 29.1 µM [cytotoxic, single point]"},
      {"smiles": "C[C@H](CO)N1C[C@H](C)[C@@H](CN(C)C(=O)C2CC2)OCc2cnnn2CCCC1=O", "activity change, negative = cytotoxicity": "inactive: 3.59%"},
      {"smiles": "CCN1C(=O)/C(=C\\N(C(C)=O)c2ccccc2)OC1=S", "activity change, negative = cytotoxicity": "inactive: -5.35%"},
      {"smiles": "COCCNC(=S)N/N=C/c1c(C)[nH]c2ccccc12", "Potency": "inconclusive: 20.6 µM [cytotoxic, single point]"},
      {"smiles": "COc1ccc(Cl)cc1NC(=O)/C=C/C(=O)O", "Potency": "inconclusive: 29.1 µM [rising, single point]"},
      {"smiles": "Cn1c(=O)[nH]c(=O)c2c1ncn2CCCc1ccccc1", "Potency": "inconclusive: 14.6 µM [cytotoxic, partial curve]"},
      {"smiles": "CCSc1nc2c(cnn2-c2ccccc2)c(=O)n1N", "Potency": "inconclusive: 29.1 µM [cytotoxic, single point]"},
      {"smiles": "Cc1cccc(CCNC(=O)C2CCN(S(=O)(=O)c3ccccc3)CC2)c1", "Potency": "inconclusive: 20.6 µM [cytotoxic, single point]"},
      {"smiles": "Cc1cccc(N(C)C(=O)Cn2cnc3nc4c(cc3c2=O)CCCC4)c1", "activity change, negative = cytotoxicity": "inactive: -1.39%"},
      {"smiles": "CCOc1ccc(C(=O)CCC(=O)NNC(=O)c2ccncc2)cc1", "Potency": "inconclusive: 18.4 µM [cytotoxic, single point]"},
      {"smiles": "COCC(=O)n1nc(-c2ccc(Cl)cc2)nc1NCc1ccc(F)cc1", "Potency": "inconclusive: 20.6 µM [cytotoxic, single point]"}
    ]}
  ]
}
